# From the supplement of paper PMC10077471
# The full ranking holds about 1,900 compounds; the median of “excess over highest single agent (ExcessHSA) synergy score, 6x6 matrix” is about -83, and the lowest 2% start at about -370. Some of the results follow.
# Tested on: NCI-H446
# Experiment: excess over highest single agent (ExcessHSA) synergy score, 6x6 matrix; higher = less synergy (more negative = stronger synergy)
# Conditions: 72 h; CellTiter-Glo viability
row,SMILES,excess over highest single agent
1,Oc1ccc(C2CNCCc3c2cc(O)c(O)c3Cl)cc1 (stereo unspecified) + Cc1sc2c(c1C)C(c1ccc(Cl)cc1)=N[C@@H](CC(=O)OC(C)(C)C)c1nnc(C)n1-2 [NCGC00250412-19],-348
2,Cc1cc(Nc2cc(NC(=O)c3c(Cl)cccc3Cl)ccn2)nc(N)n1 + Cc1sc2c(c1C)C(c1ccc(Cl)cc1)=N[C@@H](CC(=O)OC(C)(C)C)c1nnc(C)n1-2 [NCGC00250412-19],-114
3,COCCOc1nc(-c2ccc(Cl)c(Cl)c2)n(-c2ccc(NC(=O)CCl)cc2)n1 + Cc1sc2c(c1C)C(c1ccc(Cl)cc1)=N[C@@H](CC(=O)OC(C)(C)C)c1nnc(C)n1-2 [NCGC00250412-19],-201
4,CCOC(=O)N1CCN(/[N+]([O-])=N/Oc2cc(O/N=[N+](\[O-])N3CCN(C(=O)OCC)CC3)c([N+](=O)[O-])cc2[N+](=O)[O-])CC1 + Cc1sc2c(c1C)C(c1ccc(Cl)cc1)=N[C@@H](CC(=O)OC(C)(C)C)c1nnc(C)n1-2 [NCGC00250412-19],-102
5,CN1C(=O)COc2c(C(=O)NC3CN4CCC3CC4)cc(Cl)cc21 (stereo unspecified) + Cc1sc2c(c1C)C(c1ccc(Cl)cc1)=N[C@@H](CC(=O)OC(C)(C)C)c1nnc(C)n1-2 [NCGC00250412-19],-81.7
6,OC[C@@H](O)[C@@H](O)[C@H](O)[C@H](O)CO + Cc1sc2c(c1C)C(c1ccc(Cl)cc1)=N[C@@H](CC(=O)OC(C)(C)C)c1nnc(C)n1-2 [NCGC00250412-19],-202
7,O=C(Oc1ccc([N+](=O)[O-])cc1)N1CCC(C(O)(c2ccc3c(c2)OCO3)c2ccc3c(c2)OCO3)CC1 + Cc1sc2c(c1C)C(c1ccc(Cl)cc1)=N[C@@H](CC(=O)OC(C)(C)C)c1nnc(C)n1-2 [NCGC00250412-19],-72.8
8,C[C@H](NCc1ccc(OCc2cccc(F)c2)cc1)C(N)=O + Cc1sc2c(c1C)C(c1ccc(Cl)cc1)=N[C@@H](CC(=O)OC(C)(C)C)c1nnc(C)n1-2 [NCGC00250412-19],8.99
9,CCn1cc(C(=O)O)c(=O)c2cc(F)c(N3CCNCC3)nc21 + Cc1sc2c(c1C)C(c1ccc(Cl)cc1)=N[C@@H](CC(=O)OC(C)(C)C)c1nnc(C)n1-2 [NCGC00250412-19],92.6
10,CC=C1C2C=C(C)CC1(N)c1ccc(=O)[nH]c1C2 (stereo unspecified) + Cc1sc2c(c1C)C(c1ccc(Cl)cc1)=N[C@@H](CC(=O)OC(C)(C)C)c1nnc(C)n1-2 [NCGC00250412-19],-16.9
11,C=C(C)[C@@H]1CC[C@]2(C(=O)O)CC[C@]3(C)[C@H](CC[C@@H]4[C@@]5(C)CC[C@H](O)C(C)(C)[C@@H]5CC[C@]43C)[C@@H]12 + Cc1sc2c(c1C)C(c1ccc(Cl)cc1)=N[C@@H](CC(=O)OC(C)(C)C)c1nnc(C)n1-2 [NCGC00250412-19],56
12,CCCCCN(C)CCC(O)(P(=O)(O)O)P(=O)(O)O + Cc1sc2c(c1C)C(c1ccc(Cl)cc1)=N[C@@H](CC(=O)OC(C)(C)C)c1nnc(C)n1-2 [NCGC00250412-19],-38.2
13,O=C(O)C1=C[C@@H](O)[C@@H](O)[C@H](O)C1 + Cc1sc2c(c1C)C(c1ccc(Cl)cc1)=N[C@@H](CC(=O)OC(C)(C)C)c1nnc(C)n1-2 [NCGC00250412-19],100
14,CC(C)OC(=O)C(C(=O)OC(C)C)=C1SC=CS1 + Cc1sc2c(c1C)C(c1ccc(Cl)cc1)=N[C@@H](CC(=O)OC(C)(C)C)c1nnc(C)n1-2 [NCGC00250412-19],-54.8
15,Cc1c(C)n(Cc2ccc(-c3ccccc3C(=O)O)cc2)c2ccc(C(=O)N[C@@H](C)c3ccc([N+](=O)[O-])cc3)cc12 + Cc1sc2c(c1C)C(c1ccc(Cl)cc1)=N[C@@H](CC(=O)OC(C)(C)C)c1nnc(C)n1-2 [NCGC00250412-19],224
16,CC[C@]12C=CCN3CC[C@@]4(c5cc([C@@]6(C(=O)OC)C[C@@H]7C[C@@H](C(C)(F)F)CN(Cc8c6[nH]c6ccccc86)C7)c(OC)cc5N(C)[C@H]4[C@@](O)(C(=O)OC)[C@@H]1OC(C)=O)[C@@H]32 + Cc1sc2c(c1C)C(c1ccc(Cl)cc1)=N[C@@H](CC(=O)OC(C)(C)C)c1nnc(C)n1-2 [NCGC00250412-19],-187
17,CNC(=O)c1c(-c2ccc(F)cc2)oc2cc(N(CCO)S(C)(=O)=O)c(C3CC3)cc12 + Cc1sc2c(c1C)C(c1ccc(Cl)cc1)=N[C@@H](CC(=O)OC(C)(C)C)c1nnc(C)n1-2 [NCGC00250412-19],-113
18,CCNC(=O)[C@H]1O[C@@H](n2cnc3c(N)nc(NCCc4ccc(CCC(=O)O)cc4)nc32)[C@H](O)[C@@H]1O + Cc1sc2c(c1C)C(c1ccc(Cl)cc1)=N[C@@H](CC(=O)OC(C)(C)C)c1nnc(C)n1-2 [NCGC00250412-19],-52.9

# Exported tab-delimited: entries from further up.
row	SMILES	excess over highest single agent
3	COCCOc1nc(-c2ccc(Cl)c(Cl)c2)n(-c2ccc(NC(=O)CCl)cc2)n1 + Cc1sc2c(c1C)C(c1ccc(Cl)cc1)=N[C@@H](CC(=O)OC(C)(C)C)c1nnc(C)n1-2 [NCGC00250412-19]	-201
4	CCOC(=O)N1CCN(/[N+]([O-])=N/Oc2cc(O/N=[N+](\[O-])N3CCN(C(=O)OCC)CC3)c([N+](=O)[O-])cc2[N+](=O)[O-])CC1 + Cc1sc2c(c1C)C(c1ccc(Cl)cc1)=N[C@@H](CC(=O)OC(C)(C)C)c1nnc(C)n1-2 [NCGC00250412-19]	-102
5	CN1C(=O)COc2c(C(=O)NC3CN4CCC3CC4)cc(Cl)cc21 (stereo unspecified) + Cc1sc2c(c1C)C(c1ccc(Cl)cc1)=N[C@@H](CC(=O)OC(C)(C)C)c1nnc(C)n1-2 [NCGC00250412-19]	-81.7
6	OC[C@@H](O)[C@@H](O)[C@H](O)[C@H](O)CO + Cc1sc2c(c1C)C(c1ccc(Cl)cc1)=N[C@@H](CC(=O)OC(C)(C)C)c1nnc(C)n1-2 [NCGC00250412-19]	-202
7	O=C(Oc1ccc([N+](=O)[O-])cc1)N1CCC(C(O)(c2ccc3c(c2)OCO3)c2ccc3c(c2)OCO3)CC1 + Cc1sc2c(c1C)C(c1ccc(Cl)cc1)=N[C@@H](CC(=O)OC(C)(C)C)c1nnc(C)n1-2 [NCGC00250412-19]	-72.8
8	C[C@H](NCc1ccc(OCc2cccc(F)c2)cc1)C(N)=O + Cc1sc2c(c1C)C(c1ccc(Cl)cc1)=N[C@@H](CC(=O)OC(C)(C)C)c1nnc(C)n1-2 [NCGC00250412-19]	8.99
9	CCn1cc(C(=O)O)c(=O)c2cc(F)c(N3CCNCC3)nc21 + Cc1sc2c(c1C)C(c1ccc(Cl)cc1)=N[C@@H](CC(=O)OC(C)(C)C)c1nnc(C)n1-2 [NCGC00250412-19]	92.6

# (listing goes on)

row,SMILES,excess over highest single agent
1,CCN(CC)CCCC(C)Nc1ccnc2cc(Cl)ccc12 (stereo unspecified) + Cc1sc2c(c1C)C(c1ccc(Cl)cc1)=N[C@@H](CC(=O)OC(C)(C)C)c1nnc(C)n1-2 [NCGC00250412-19],-115
2,O=C1CCC[C@@H]2[C@H]3CCCN4CCC[C@@H](CN12)[C@@H]34 + Cc1sc2c(c1C)C(c1ccc(Cl)cc1)=N[C@@H](CC(=O)OC(C)(C)C)c1nnc(C)n1-2 [NCGC00250412-19],-63.2
3,COc1cc2c(Oc3ccc(-c4cnc(Nc5ccc(F)cc5)n(C)c4=O)cc3F)ccnc2cc1OCCCN1CCOCC1 + Cc1sc2c(c1C)C(c1ccc(Cl)cc1)=N[C@@H](CC(=O)OC(C)(C)C)c1nnc(C)n1-2 [NCGC00250412-19],-230
4,OC[C@H]1O[C@@H](O[C@@H]2[C@@H](CO)O[C@](O)(CO)[C@H]2O)[C@H](O)[C@@H](O)[C@H]1O + Cc1sc2c(c1C)C(c1ccc(Cl)cc1)=N[C@@H](CC(=O)OC(C)(C)C)c1nnc(C)n1-2 [NCGC00250412-19],48.6
5,COc1cc2c(cc1OC)C1CC(=O)C(CC(C)C)CN1CC2 (stereo unspecified) + Cc1sc2c(c1C)C(c1ccc(Cl)cc1)=N[C@@H](CC(=O)OC(C)(C)C)c1nnc(C)n1-2 [NCGC00250412-19],50.8
6,CC(=O)O/N=C1/C(c2c(O)[nH]c3cc(Br)ccc23)=Nc2ccccc21 + Cc1sc2c(c1C)C(c1ccc(Cl)cc1)=N[C@@H](CC(=O)OC(C)(C)C)c1nnc(C)n1-2 [NCGC00250412-19],54.4
7,COc1cccc2c1C(=O)c1c(O)c3c(c(O)c1C2=O)C[C@@](O)(C(=O)CO)C[C@@H]3O[C@H]1C[C@H](N)[C@@H](O)[C@H](C)O1 + Cc1sc2c(c1C)C(c1ccc(Cl)cc1)=N[C@@H](CC(=O)OC(C)(C)C)c1nnc(C)n1-2 [NCGC00250412-19],-433
8,COC(=O)C[C@](O)(CCCC(C)(C)O)C(=O)O[C@@H]1C(OC)=C[C@]23CCCN2CCc2cc4c(cc2[C@H]13)OCO4 + Cc1sc2c(c1C)C(c1ccc(Cl)cc1)=N[C@@H](CC(=O)OC(C)(C)C)c1nnc(C)n1-2 [NCGC00250412-19],-186
9,CC(=O)O[C@H]1C(=O)[C@@]2(C)[C@H]([C@H](OC(=O)c3ccccc3)[C@]3(O)C[C@H](OC(=O)[C@H](O)[C@@H](NC(=O)c4ccccc4)c4ccccc4)C(C)=C1C3(C)C)[C@]1(OC(C)=O)CO[C@@H]1C[C@@H]2O + Cc1sc2c(c1C)C(c1ccc(Cl)cc1)=N[C@@H](CC(=O)OC(C)(C)C)c1nnc(C)n1-2 [NCGC00250412-19],-144
10,NC(=O)c1cccc(-c2cccc(OC(=O)NC3CCCCC3)c2)c1 + Cc1sc2c(c1C)C(c1ccc(Cl)cc1)=N[C@@H](CC(=O)OC(C)(C)C)c1nnc(C)n1-2 [NCGC00250412-19],-129
11,Cc1[nH]c(=O)c(C#N)cc1-c1ccc2nccn2c1 + Cc1sc2c(c1C)C(c1ccc(Cl)cc1)=N[C@@H](CC(=O)OC(C)(C)C)c1nnc(C)n1-2 [NCGC00250412-19],-204
12,COC[C@H]1OC(=O)c2coc3c2[C@@]1(C)C1=C(C3=O)[C@@H]2CCC(=O)[C@@]2(C)C[C@H]1OC(C)=O + Cc1sc2c(c1C)C(c1ccc(Cl)cc1)=N[C@@H](CC(=O)OC(C)(C)C)c1nnc(C)n1-2 [NCGC00250412-19],-484
13,CN(C(Cc1ccc(OS(=O)(=O)c2cccc3cnccc23)cc1)C(=O)N1CCN(c2ccccc2)CC1)S(=O)(=O)c1cccc2cnccc12 (stereo unspecified) + Cc1sc2c(c1C)C(c1ccc(Cl)cc1)=N[C@@H](CC(=O)OC(C)(C)C)c1nnc(C)n1-2 [NCGC00250412-19],-136
14,C#Cc1cccc(Nc2ncnc3cc(OCCOC)c(OCCO)cc23)c1 + Cc1sc2c(c1C)C(c1ccc(Cl)cc1)=N[C@@H](CC(=O)OC(C)(C)C)c1nnc(C)n1-2 [NCGC00250412-19],-46.8
15,CC[C@H](CC#N)OC(=O)N[C@@H](C)c1cccc(NC(=O)Nc2ccc(-c3cnco3)c(OC)c2)c1 + Cc1sc2c(c1C)C(c1ccc(Cl)cc1)=N[C@@H](CC(=O)OC(C)(C)C)c1nnc(C)n1-2 [NCGC00250412-19],-174
16,Cn1cnc2c(F)c(Nc3ccc(Br)cc3F)c(C(=O)NOCCO)cc21 + Cc1sc2c(c1C)C(c1ccc(Cl)cc1)=N[C@@H](CC(=O)OC(C)(C)C)c1nnc(C)n1-2 [NCGC00250412-19],111
17,NC(=O)c1cnccn1 + Cc1sc2c(c1C)C(c1ccc(Cl)cc1)=N[C@@H](CC(=O)OC(C)(C)C)c1nnc(C)n1-2 [NCGC00250412-19],81.8
18,Nc1nc(N)c(N=O)c(OCC2CCCCC2)n1 + Cc1sc2c(c1C)C(c1ccc(Cl)cc1)=N[C@@H](CC(=O)OC(C)(C)C)c1nnc(C)n1-2 [NCGC00250412-19],-171
